{"source": "PubChem BioAssay AID1259254 (NCATS, 2017)", "test": "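Finding genes that stop cells copying their DNA twice in one cycle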 (primary screen)", "cell system": "human HCT116 colorectal cancer cells", "reagent": "single siRNA against human genes", "timing": "3 days", "detection": "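Nuclei stained with Hoechst and imaged; cell-cycle phase assigned by DNA content; G2 share scaled per plate, non-targeting siRNA 0%, GMNN siRNA 100%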", "scale": "G2 robust z-score: higher = more G2 cells, more excess DNA replication", "active means": "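Active siRNAs have a G2 robust z of 5 or more median absolute deviations over the median, which in these data means about 38% or higher of GMNN control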", "note": "This is one part, drawn at random, of about 59,000 deposited reagents. In the full data, about 1,550 (2.6%) were called active. 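G2 share is only a proxy for re-replication; each gene was hit by three separate siRNAs, and active genes were retested.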 Reagents against one gene are numbered here. Not all columns of the deposit are shown. The record does not give: the amount of reagent."}
{"target":"ZNF264 (zinc finger protein 264)","reagent":1,"G2 robust z-score":-0.101,"call":"inactive"}
{"target":"ZNF264 (zinc finger protein 264)","reagent":2,"G2 robust z-score":0.98,"call":"inactive"}
{"target":"ZNF264 (zinc finger protein 264)","reagent":3,"G2 robust z-score":1.84,"call":"inactive"}
{"target":"ZNF69 (zinc finger protein 69)","reagent":1,"G2 robust z-score":-0.446,"call":"inactive"}
{"target":"ZNF69 (zinc finger protein 69)","reagent":2,"G2 robust z-score":2.38,"call":"inactive"}
{"target":"ZNF69 (zinc finger protein 69)","reagent":3,"G2 robust z-score":-0.919,"call":"inactive"}
{"target":"MAP4K3-DT (MAP4K3 divergent transcript)","reagent":1,"G2 robust z-score":-0.499,"call":"inactive"}
{"target":"MAP4K3-DT (MAP4K3 divergent transcript)","reagent":2,"G2 robust z-score":1.14,"call":"inactive"}
{"target":"MAP4K3-DT (MAP4K3 divergent transcript)","reagent":3,"G2 robust z-score":2.54,"call":"inactive"}
{"target":"HYPK (huntingtin interacting protein K)","reagent":1,"G2 robust z-score":-0.34,"call":"inactive"}
{"target":"HYPK (huntingtin interacting protein K)","reagent":2,"G2 robust z-score":-0.756,"call":"inactive"}
{"target":"HYPK (huntingtin interacting protein K)","reagent":3,"G2 robust z-score":-0.754,"call":"inactive"}
{"target":"HMBS (hydroxymethylbilane synthase)","reagent":1,"G2 robust z-score":0.266,"call":"inactive"}
{"target":"HMBS (hydroxymethylbilane synthase)","reagent":2,"G2 robust z-score":0.0578,"call":"inactive"}
{"target":"HMBS (hydroxymethylbilane synthase)","reagent":3,"G2 robust z-score":5.77,"call":"active"}
{"target":"SPINK7 (serine peptidase inhibitor Kazal type 7)","reagent":1,"G2 robust z-score":1.53,"call":"inactive"}
{"target":"SPINK7 (serine peptidase inhibitor Kazal type 7)","reagent":2,"G2 robust z-score":1.09,"call":"inactive"}
{"target":"SPINK7 (serine peptidase inhibitor Kazal type 7)","reagent":3,"G2 robust z-score":-0.469,"call":"inactive"}
{"target":"FCHSD2 (FCH and double SH3 domains 2)","reagent":1,"G2 robust z-score":-0.363,"call":"inactive"}
{"target":"FCHSD2 (FCH and double SH3 domains 2)","reagent":2,"G2 robust z-score":0.581,"call":"inactive"}
{"target":"FCHSD2 (FCH and double SH3 domains 2)","reagent":3,"G2 robust z-score":0.819,"call":"inactive"}
{"target":"HID1 (HID1 domain containing)","reagent":1,"G2 robust z-score":-0.315,"call":"inactive"}
{"target":"HID1 (HID1 domain containing)","reagent":2,"G2 robust z-score":0.0948,"call":"inactive"}
{"target":"HID1 (HID1 domain containing)","reagent":3,"G2 robust z-score":-0.00325,"call":"inactive"}

Sorted by “G2 robust z-score” (low to high): 3 of the entries above.
{"target":"SPINK7 (serine peptidase inhibitor Kazal type 7)","reagent":3,"G2 robust z-score":-0.469,"call":"inactive"}
{"target":"SPINK7 (serine peptidase inhibitor Kazal type 7)","reagent":2,"G2 robust z-score":1.09,"call":"inactive"}
{"target":"SPINK7 (serine peptidase inhibitor Kazal type 7)","reagent":1,"G2 robust z-score":1.53,"call":"inactive"}
